{"source": "patent US20080107707A1", "about": "“POLYMERIZABLE ANTIMICROBIAL COMPOSITION” (REGENTS OF THE UNIVERSITY OF COLORADO, priority 2006, published 2008)", "test_system": "S. epidermidis ATCC 12228", "test": "Minimum inhibitory concentration (MIC), broth dilution method", "format": "cell-based", "conditions": "Staphylococcus epidermidis, ATCC12228", "experimental": "The minimum inhibitory concentration (MIC) and minimum bactericidal concentration (MBC) of the monomer were determined by the broth dilution method. Various amounts of VPA were added to 1 mL of brain heart infusion media (BHI) (Becton, Dickinson, and Co., Sparks, Md.) along with 1×10^5 cfu of S. epidermidis ATCC 12228 (MicroBiologics, Inc., St. Cloud, Minn.) using aseptic technique. Cultures were incubated for 24 hr. at 37° C. The MIC was taken to be the lowest VPA concentration at which no turbidity was observed."}
{"smiles": "CN[C@H](CC(C)C)C(=O)N[C@H]1C(=O)N[C@@H](CC(N)=O)C(=O)N[C@H]2C(=O)N[C@H]3C(=O)N[C@H](C(=O)N[C@H](C(=O)O)c4cc(O)cc(O)c4-c4cc3ccc4O)[C@H](O)c3ccc(c(Cl)c3)Oc3cc2cc(c3O[C@@H]2O[C@H](CO)[C@@H](O)[C@H](O)[C@H]2O[C@H]2C[C@](C)(N)[C@H](O)[C@H](C)O2)Oc2ccc(cc2Cl)[C@H]1O", "note": "[vancomycin, reference compound]", "values": [{"measurement": "MIC", "value": "1.12 ± 0.04", "unit": "µM"}]}
